All values are in %. The record does not define 0% and 100%; most values in the screen are far below 50% and negative numbers occur (in some assays of this library far below -100). The compounds are a random part of those screened. A dash means the value is not listed here; it may have been measured.

Amino acid sequences for entries named in this document (tags omitted).
UniProt E9BF75, entry or part of it: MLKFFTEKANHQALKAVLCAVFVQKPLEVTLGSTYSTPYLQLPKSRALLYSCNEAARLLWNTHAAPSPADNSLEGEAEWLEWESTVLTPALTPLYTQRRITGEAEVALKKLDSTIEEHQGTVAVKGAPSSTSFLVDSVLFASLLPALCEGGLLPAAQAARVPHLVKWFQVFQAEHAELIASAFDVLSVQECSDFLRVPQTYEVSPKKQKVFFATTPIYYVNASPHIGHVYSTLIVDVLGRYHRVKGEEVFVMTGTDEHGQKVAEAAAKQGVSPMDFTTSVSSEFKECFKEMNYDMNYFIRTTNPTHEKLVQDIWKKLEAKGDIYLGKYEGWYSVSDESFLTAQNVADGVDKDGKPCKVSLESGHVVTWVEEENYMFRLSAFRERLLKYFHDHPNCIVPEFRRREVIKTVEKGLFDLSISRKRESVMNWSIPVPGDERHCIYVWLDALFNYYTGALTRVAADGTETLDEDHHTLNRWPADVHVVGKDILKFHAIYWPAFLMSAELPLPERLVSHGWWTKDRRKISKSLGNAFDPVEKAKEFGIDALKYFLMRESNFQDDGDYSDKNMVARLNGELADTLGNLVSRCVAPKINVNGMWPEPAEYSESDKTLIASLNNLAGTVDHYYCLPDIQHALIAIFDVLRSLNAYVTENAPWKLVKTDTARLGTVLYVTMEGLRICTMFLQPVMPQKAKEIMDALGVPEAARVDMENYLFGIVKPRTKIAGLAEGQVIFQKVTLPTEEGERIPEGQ

Mtb heat-shock: 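Assay on Mycobacterium tuberculosis, filed only as a heat shock assay from Cornell; the read-out is not stated. The concentration is filed as 10 mM, unlikely as a test dose, so the dose is not known. The record gives no direction; compounds that gave an IC50 in retests scored well above the rest, so higher reads as stronger inhibition. About 69,000 compounds were tested under these conditions; 1.4% (about 930) showed 50% or more at least once.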
LdMetRS: 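Methionyl-tRNA synthetase (putative), Leishmania donovani (UniProt E9BF75). Primary screen of methionyl-tRNA synthetase; the read-out is not stated. The test concentration is not given. The values are filed as inhibition. Size under these conditions: about 68,000 compounds, about 24 of them at 50% or above in at least one test.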
Mtb growth Cornell: 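Whole-cell assay for inhibitors of Mycobacterium tuberculosis growth, labelled Cornell in the record; the read-out is not stated. The concentration is filed as 10 mM, unlikely as a test dose, so the dose is not known. Higher means stronger inhibition (inferred from two other growth screens of the library). Of about 53,000 compounds tested this way, about 900 (1.7%) reached 50% or more in at least one test.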

* O=C(O)C(F)(F)F.O=C(O)C(F)(F)F.[H][C@@]12CN(Cc3ccc(C)s3)CCC[C@]1(C(=O)O)CN(CC1CC1)C2 : Mtb heat-shock: -7.087%; Mtb growth Cornell: 2.113%
* O=C(CCn1ccc(=O)[nH]c1=O)N1CCC(Oc2ccccn2)CC1 : Mtb heat-shock: 4.579%; LdMetRS: 10.07%; Mtb growth Cornell: 17.99%
* COc1ccc(C(=O)O)cc1-c1cccc2c1CCNC2 : Mtb heat-shock: 0.7469%; LdMetRS: 16.97%
* CC(C)N1CCCC(C(=O)NCCCc2cnn(C)c2)C1 (stereo not drawn) : Mtb heat-shock: -13.92%; LdMetRS: 4.124%; Mtb growth Cornell: -3.005%
* Cc1ccc2c(n1)N(CCN(C)C)CCN(C(=O)c1ccsc1)C2 : Mtb heat-shock: -6.042%; LdMetRS: 20.33%; Mtb growth Cornell: 29.04%
* Cc1ncsc1CCN(C)Cc1cc2n(n1)CCN(Cc1ncc[nH]1)C2 : Mtb heat-shock: -15.67%; LdMetRS: -0.3497%; Mtb growth Cornell: -9.502%
* Cc1cc(C(=O)NC(CC(C)C)C(=O)Nc2cc[nH]n2)c(C)o1 (stereo not drawn) : Mtb heat-shock: 12.05%; LdMetRS: 15.38%; Mtb growth Cornell: -32.33%
* O=C(O)C(F)(F)F.[H][C@@]12OCCN(C(=O)c3ccnnc3)[C@@]1([H])CC[C@H]2OCCN(C)C : Mtb heat-shock: -33.17%
* Cc1cc(S(=O)(=O)Nc2cccc(OC(F)F)c2)sc1C(=O)O : Mtb heat-shock: 3.551%; LdMetRS: 3.559%
* COc1cccc(C(O)CN2CCN(C(=O)CCC(C)C)CC2)c1 (stereo not drawn) : Mtb heat-shock: 3.99%; LdMetRS: 4.087%; Mtb growth Cornell: 4.081%
* O=C(CCC(=O)Nc1ccccc1)NCC(=O)c1ccc(F)cc1F : Mtb heat-shock: -0.9863%; LdMetRS: 10.53%; Mtb growth Cornell: 29.22%
* CO[C@H]1CCN(C(=O)Cc2ccc(F)cc2)[C@H]1Cc1ccncc1 : Mtb heat-shock: 6.976%; LdMetRS: 3.297%; Mtb growth Cornell: 21.39%
* CC(C)c1nc(NS(=O)(=O)c2ccccc2Cl)no1 : Mtb heat-shock: 11.08%; LdMetRS: 11.21%; Mtb growth Cornell: 6.234%
* O=C(CC1COCCN1)N1CCC(N2CCc3ccccc3C2)CC1 (stereo not drawn) : Mtb heat-shock: -29.9%; LdMetRS: 1.412%; Mtb growth Cornell: -14.32%
* Cc1sc(Br)cc1S(=O)(=O)NCCCN.Cl : Mtb heat-shock: -3.401%; Mtb growth Cornell: 7.99%
* O=C(O)C(F)(F)F.O=C1COC2(CCN(c3ncccn3)CC2)CN1 : Mtb heat-shock: -4.23%; Mtb growth Cornell: -19.93%
* COC[C@@]12CCO[C@@H]1CCN(Cc1ccc(C)s1)C2 : LdMetRS: 1.12%
* COCCn1cnc2ccc(NC(=O)C3CC3)cc2c1=O : Mtb heat-shock: 26.24%; LdMetRS: 12.83%; Mtb growth Cornell: 37.76%
* c1coc(CN2CCC3(CC2)COCCN(CCN2CCCC2)C3)c1 : LdMetRS: 11.59%
* COc1ccc(NC(=O)c2nc3ccccc3n(C)c2=O)c(OC)c1 : Mtb heat-shock: 23.38%; LdMetRS: 9.014%; Mtb growth Cornell: 8.562%
* Cc1cnn(CC2CCCN2C(=O)c2ccc(Cl)cc2F)c1 (stereo not drawn) : Mtb heat-shock: -20.08%; LdMetRS: 8.743%
* COc1cc(C)nc(N2CCN(C(=O)c3cccc(C#N)c3)CC2)n1 : Mtb heat-shock: -2.123%; LdMetRS: 17.71%; Mtb growth Cornell: -17.41%
* CC(CNc1cncc(-n2cccn2)n1)N(C)c1ccccc1 (stereo not drawn) : Mtb heat-shock: 9.042%; LdMetRS: 10.93%; Mtb growth Cornell: 7%
* CCNC(=O)C(C)NC(=O)Nc1ccccc1SC(F)(F)F (stereo not drawn) : Mtb heat-shock: -17.25%; LdMetRS: 15.57%; Mtb growth Cornell: 16.74%
* CCn1ccnc1CN1CCN(CC(O)c2ccco2)CC1 (stereo not drawn) : Mtb heat-shock: -17.17%; LdMetRS: 12.11%

The last 2 entries again:

SMILES,Mtb heat-shock,LdMetRS,Mtb growth Cornell
CCNC(=O)C(C)NC(=O)Nc1ccccc1SC(F)(F)F (stereo not drawn),-17.25,15.57,16.74
CCn1ccnc1CN1CCN(CC(O)c2ccco2)CC1 (stereo not drawn),-17.17,12.11,-

From ChEMBL document CHEMBL3988442, “University of Dundee, Small-Polar-MMV Screening Library” (2021).